# Results: article PMC7819943, “Rice protein-binding microarrays: a tool to detect cis-acting elements near promoter regions in rice”
# Sequences of proteins named here, by UniProt entry; tags and fusion partners are left off.
# UniProt Q0JBA9, entry or part of it: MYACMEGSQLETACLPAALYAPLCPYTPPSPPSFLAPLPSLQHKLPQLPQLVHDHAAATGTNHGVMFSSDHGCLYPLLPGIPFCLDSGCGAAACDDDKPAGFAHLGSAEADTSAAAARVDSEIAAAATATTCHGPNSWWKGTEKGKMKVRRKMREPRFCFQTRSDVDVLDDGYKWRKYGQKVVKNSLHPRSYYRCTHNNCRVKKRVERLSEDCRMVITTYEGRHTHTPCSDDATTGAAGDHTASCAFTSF
# Some of the results follow.
# Target: OsWRKY34 (Oryza sativa, UniProt Q0JBA9 1-250)
# Test: protein-binding microarray (RPBM); PBS, 2% BSA, 51.3 ng/ul salmon testes DNA, 50 uM zinc acetate, 200 nM TF, 25 C, 1 h; high values mean tight binding
# Details: protein: recombinant; tags: N-terminal polyhistidine and DsRed monomer fusion (pET32a); label: CyDye5-dUTP incorporated in the synthesized complementary strand; 3' TTTTT single-stranded linker to array surface; dsDNA, one strand shown
# Method in brief: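 Binding signal is defined as the fluorescence intensity of each feature in arbitrary units, read on an Axon 4000B scanner. Transcription factors with N-terminal polyhistidine and DsRed fusions came from E. coli BL21-CodonPlus and were purified on Ni–NTA. They were incubated at 200 nM for 1 h at 25 °C on a custom Agilent array that had been made double-stranded with Cy5-dUTP, with 50 µM zinc acetate present, and the array was washed.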
row,Sequence,binding signal
1,ACTTTAAGCCACGTATCTTTGATTCTTTTCCCCTTCTTTTCGGAGTCACCTAGTGCAG,8480 fluorescence intensity (a.u.)
2,CGATGGTGGAGATGTAGTCACGCTGTTCCGGCCCGTCTCCCGGAGTCACCTAGTGCAG,9300 fluorescence intensity (a.u.)
3,AGACTTAATAATAGTGCTCCTGGGGTCGTTAGTGTGTAACCGGAGTCACCTAGTGCAG,8750 fluorescence intensity (a.u.)
4,ACACAACCGCTCATATAAACATGCATATATCCTACTTCTACGGAGTCACCTAGTGCAG,9030 fluorescence intensity (a.u.)
5,AGAGATAGTACTCTGTGCGTGGTGGGAGGAGGGATGAAAACGGAGTCACCTAGTGCAG,9500 fluorescence intensity (a.u.)
6,ACCAGAGCTCCACTAACCAAATCCTCGCGCCATTAGCTTCCGGAGTCACCTAGTGCAG,9460 fluorescence intensity (a.u.)
7,GGGATCCACAGCCTAATCTTCGTTCTTATCCACTCATTCCCGGAGTCACCTAGTGCAG,9040 fluorescence intensity (a.u.)
8,GGTGCAGTCCTCCAGCTGCTTCTCCCCGCCGCCGACCCGCCGGAGTCACCTAGTGCAG,9670 fluorescence intensity (a.u.)
9,ACGCTCTCGACTCGATCGCGCGCGCGCGGTTGGCGGTTCCCGGAGTCACCTAGTGCAG,8250 fluorescence intensity (a.u.)
10,AGCTTCTGTGGCCAGCTGTTTCACCATCATCTCCGCGGCCCGGAGTCACCTAGTGCAG,9800 fluorescence intensity (a.u.)
11,CTCCGTCGCTGACTGCAACCTCCACCCACACGGCACCCATCGGAGTCACCTAGTGCAG,8090 fluorescence intensity (a.u.)
12,GCCTGATGTGTTGATGTGCTGCTGTTCAGACTTTGAACCTCGGAGTCACCTAGTGCAG,10800 fluorescence intensity (a.u.)
13,TTTGGACCTCTAAACTTTCACATATATCAGTTTATCTTACCGGAGTCACCTAGTGCAG,8220 fluorescence intensity (a.u.)
14,CCAGAGGTGCTCTTAGAGGGTAGGGTATTTATTTATTACACGGAGTCACCTAGTGCAG,8490 fluorescence intensity (a.u.)
15,ATCTCCATTGGATATCCCGTCTCTTCAGCCGGTCGTCAATCGGAGTCACCTAGTGCAG,9570 fluorescence intensity (a.u.)
16,TCACCCTACTGCAGCTGCTGTTTTTATGCATCCTGCTGCCCGGAGTCACCTAGTGCAG,8820 fluorescence intensity (a.u.)
17,TGAGCCTTCGTTTTCTCTCCCTCAGTTCTCCTCTACCACTCGGAGTCACCTAGTGCAG,8060 fluorescence intensity (a.u.)
18,CCTATTGGCTGCTCAACTCATCGTTCTGTTGCTTCCTTCTCGGAGTCACCTAGTGCAG,11300 fluorescence intensity (a.u.)
19,GGTACTTCTACTACCTCTGCAATCGGATTACATTGGACCACGGAGTCACCTAGTGCAG,9060 fluorescence intensity (a.u.)
20,AGTTCATCTCCCACTCCGGTGAGATCTCCCTGGTGAGCTTCGGAGTCACCTAGTGCAG,8800 fluorescence intensity (a.u.)
21,CTATCTTTTTCTCCATCTTTCTCTGTCCGTCCATTCACCCCGGAGTCACCTAGTGCAG,8690 fluorescence intensity (a.u.)
22,GGGAGGGAGGGACCGAGGGAGTACTCCGGTCAAGCGATCACGGAGTCACCTAGTGCAG,10200 fluorescence intensity (a.u.)
23,GAGTTTGTGTGCATGCGTTTATAGGTGTGAGTGTACGAGCCGGAGTCACCTAGTGCAG,8890 fluorescence intensity (a.u.)
24,AGCATCCCAGCAGCTTATCCATATTTTATCCTCTAAATACCGGAGTCACCTAGTGCAG,8830 fluorescence intensity (a.u.)
25,TTGGAGTTGTAGAGGAGGAGGAGGTGGTGGTGGAGGTGGTCGGAGTCACCTAGTGCAG,10200 fluorescence intensity (a.u.)
26,CCGTTTCGAAATGTTTACACCGTTGACTTTTTAGCACATGCGGAGTCACCTAGTGCAG,30100 fluorescence intensity (a.u.)
27,GTATGCTGGATGTAGATGGATTTTTTTCTGGGGTTGCTTACGGAGTCACCTAGTGCAG,8130 fluorescence intensity (a.u.)

row,Sequence,binding signal
1,ATTTTATATTATAAGTCGTTTTGACTTTTTCGCTAATCAACGGAGTCACCTAGTGCAG,8620 fluorescence intensity (a.u.)
2,ACTCTCTCATGCTCCCTCATGTTCCTGCCACAATCTATATCGGAGTCACCTAGTGCAG,9460 fluorescence intensity (a.u.)
3,GAGATATGGCAGATTTATTTACTGTTGGTAGTGCGCTTCACGGAGTCACCTAGTGCAG,10700 fluorescence intensity (a.u.)
4,GTCTCTCTTTTTGTTTCGTCGTAGATTTCTTGGAGAATTTCGGAGTCACCTAGTGCAG,11700 fluorescence intensity (a.u.)
5,TTACACAATCATCGTTTTTGCTTATTATTATTATTTATCACGGAGTCACCTAGTGCAG,8380 fluorescence intensity (a.u.)
6,TTTCATATGAGCGAATTTTAGATTGGGTTGTTTGCGGGGCCGGAGTCACCTAGTGCAG,8760 fluorescence intensity (a.u.)
7,TTGGTTGGTTGGTTATACAAAGACGCTACGAGTCCGGGAACGGAGTCACCTAGTGCAG,12400 fluorescence intensity (a.u.)
8,TTCTTCTGCCTTTTTTTTTTGGGGCTCATTTAGTCATTTACGGAGTCACCTAGTGCAG,9890 fluorescence intensity (a.u.)
9,CCGCTTCCATTTTGCCCAGCGACGACATATGCTGTTGCGTCGGAGTCACCTAGTGCAG,10700 fluorescence intensity (a.u.)
10,AACCTGGTCACCTACCTGACGGCGACGATGCACGCCGGCACGGAGTCACCTAGTGCAG,8200 fluorescence intensity (a.u.)
11,TACATCTCTCTTATTTGGATCACGTATTATCCTTTTTCATCGGAGTCACCTAGTGCAG,10300 fluorescence intensity (a.u.)
12,TCCCTTCGTCGTTCCGTCTGCCACGTACACCTTCCATCTACGGAGTCACCTAGTGCAG,9830 fluorescence intensity (a.u.)
13,GCAACAGCTTACTACTTACTACTCGGTCCCATCATATAAGCGGAGTCACCTAGTGCAG,9430 fluorescence intensity (a.u.)
14,GCAACCGCGAGTAGTTCCTGCCGAGCAACCGGTCTTTTCGCGGAGTCACCTAGTGCAG,8100 fluorescence intensity (a.u.)
15,ATGGTCCTTTGTCACGTTGGAGAAGACGCGCCACGGCCCACGGAGTCACCTAGTGCAG,8670 fluorescence intensity (a.u.)
16,CTTGTATTCCAGTCAGAATCCTACATTTTTCCTATTCCTCCGGAGTCACCTAGTGCAG,9430 fluorescence intensity (a.u.)
17,TATCATGTGGTTTGCTTCTGTTACCTGCTGACCTGTGTTTCGGAGTCACCTAGTGCAG,8490 fluorescence intensity (a.u.)
18,CTTCCTCTACTCGTCCTCTCCATTGCGCATCTTCCCTTTCCGGAGTCACCTAGTGCAG,10300 fluorescence intensity (a.u.)
19,TCCTTCCGGCTTCCTCGGTTCCTCCTCCTCCGCAGCTAATCGGAGTCACCTAGTGCAG,8430 fluorescence intensity (a.u.)
20,GAGTTTTTTTTCCTGATTTCTCAAAAATCAGACTCACAAACGGAGTCACCTAGTGCAG,8200 fluorescence intensity (a.u.)
21,TTCATTTTTCTCGTGCATCATGATTTACCTTTTTTTCATTCGGAGTCACCTAGTGCAG,11000 fluorescence intensity (a.u.)
22,TCGCTTATACTTATCAAACAAAATTTGATTTTTCGACCTTCGGAGTCACCTAGTGCAG,8120 fluorescence intensity (a.u.)
23,TCATTAATTGCACTATCTTCTACTTAAAATTATTTTTTTACGGAGTCACCTAGTGCAG,8640 fluorescence intensity (a.u.)
24,TTGACAATGGTTGGGGTGGTGGTGGTGTTCGCGGTGATGACGGAGTCACCTAGTGCAG,31700 fluorescence intensity (a.u.)
25,ATAAGGTTGACTATATTTCTCCTTCATCTTTCTCTCTATACGGAGTCACCTAGTGCAG,9000 fluorescence intensity (a.u.)
26,CTCTCGTGGTGTGGTGTGGACAAGAAAGGAAGGAAAGATGCGGAGTCACCTAGTGCAG,8700 fluorescence intensity (a.u.)
27,TGCTGAGGATGTCGTGGATTAGGCGCTTTTGATTTTGATTCGGAGTCACCTAGTGCAG,9130 fluorescence intensity (a.u.)

# Shown with bars between the fields: entries from further up
row | Sequence | binding signal
8 | TTCTTCTGCCTTTTTTTTTTGGGGCTCATTTAGTCATTTACGGAGTCACCTAGTGCAG | 9890 fluorescence intensity (a.u.)
9 | CCGCTTCCATTTTGCCCAGCGACGACATATGCTGTTGCGTCGGAGTCACCTAGTGCAG | 10700 fluorescence intensity (a.u.)
